Source: paper PMC12375108
No constants are given. Whether binding was seen depends on the method and setting. Binding seen in cells or lysates may run through a third protein. These calls come from enrichment with a bait or labelling near it, and not all partners need be listed. Sequences can lack the tags named with a protein.

Molecular target: T1, GST-tagged E. coli hinT H101N (E. coli) (UniProt P0ACE7)
T1 sequence: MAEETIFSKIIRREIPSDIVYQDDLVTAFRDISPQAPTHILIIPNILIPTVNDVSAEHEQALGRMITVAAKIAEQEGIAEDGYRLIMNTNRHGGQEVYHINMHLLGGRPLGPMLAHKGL
Assay: affinity purification with mass spectrometry; label-free quantitative LC-MS/MS of proteins enriched with GST-Ec hinT H101N from YUMM3.3 SelO against SelO D338A lysates; filtered for mitochondrial proteins; only the target purified

B1: PdhB, β subunit of pyruvate dehydrogenase E1 complex, endogenous in YUMM3.3 cells expressing SelO (enzyme, UniProt Q9D051 31-359)
chain: VQLTVREAINQGMDEELERDEKVFLLGEEVAQYDGAYKVSRGLWKKYGDKRIIDTPISEMGFAGIAVGAAMAGLRPICEFMTFNFSMQAIDQVINSAAKTYYMSAGLQPVPIVFRGPNGASAGVAAQHSQCFAAWYGHCPGLKVVSPWNSEDAKGLIKSAIRDNNPVVMLENELMYGVAFELPAEAQSKDFLIPIGKAKIERQGTHITVVAHSRPVGHCLEAAAVLSKEGIECEVINLRTIRPMDIEAIEASVMKTNHLVTVEGGWPQFGVGAEICARIMEGPAFNFLDAPAVRVTGADVPMPYAKVLEDNSVPQVKDIIFAVKKTLNI
modifications: AMPylated by SelO, residues not given
binding: binds
